Data reported in article PMC6053369.

Protein sequences, listed by entry. Tags and fused reporters are not part of them. Lines headed by an entry give the natural chain unless they say otherwise; changes in a name come on top.
UniProt Q8BKJ9: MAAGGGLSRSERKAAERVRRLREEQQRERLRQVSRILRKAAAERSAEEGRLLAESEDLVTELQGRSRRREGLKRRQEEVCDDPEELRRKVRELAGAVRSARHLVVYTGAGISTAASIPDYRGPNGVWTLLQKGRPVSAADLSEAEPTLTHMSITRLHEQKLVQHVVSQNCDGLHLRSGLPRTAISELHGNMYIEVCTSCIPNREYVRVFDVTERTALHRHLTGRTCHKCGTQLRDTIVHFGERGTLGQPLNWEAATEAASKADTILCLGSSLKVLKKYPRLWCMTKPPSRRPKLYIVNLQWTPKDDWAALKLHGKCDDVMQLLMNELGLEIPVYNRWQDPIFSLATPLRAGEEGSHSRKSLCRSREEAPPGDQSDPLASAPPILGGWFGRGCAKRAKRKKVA
UniProt Q8VI67: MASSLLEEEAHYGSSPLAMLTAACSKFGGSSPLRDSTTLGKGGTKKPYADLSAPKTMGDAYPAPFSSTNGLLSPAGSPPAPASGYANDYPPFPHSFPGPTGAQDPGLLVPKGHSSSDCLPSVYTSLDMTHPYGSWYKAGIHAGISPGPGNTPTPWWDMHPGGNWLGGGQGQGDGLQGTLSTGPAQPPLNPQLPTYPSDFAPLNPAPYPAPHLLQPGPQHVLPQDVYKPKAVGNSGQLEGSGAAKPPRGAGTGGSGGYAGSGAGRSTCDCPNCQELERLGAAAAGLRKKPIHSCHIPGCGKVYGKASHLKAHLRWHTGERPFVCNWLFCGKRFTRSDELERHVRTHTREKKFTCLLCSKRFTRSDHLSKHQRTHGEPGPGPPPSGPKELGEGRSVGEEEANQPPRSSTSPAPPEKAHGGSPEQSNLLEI

Biological target: Halo-SIRT7-FLAG (UniProt Q8BKJ9)
Test: pull-down; HaloTag pull-down: Halo fusion proteins (30 ug) immobilised on HaloLink Resin, incubated with 500 ug lysate of transfected HEK293T cells in pull-down buffer (10 mM Tris-HCl pH 7.4, 150 mM NaCl, 1% NP-40, 10 mM NaF, 10 mM Na4P2O7), overnight at 4 C, five washes; western blot; only the target …

“GAL4DBD-OSX N-terminal transactivation domain (27-192) (from UniProt Q8VI67) (domain or fragment)” was tested, and the binding was “binds weakly”.

Results are given in words; binding and its absence hold for the method and conditions named. In cells and extracts the contact can be indirect. A result given as binding can be weak or reduced; the word gives no strength.
